# Results as given in the supplement of paper PMC4635364.
# Where a name gives a salt, the structure may show the parent alone. The list shows a part of the results. This data set is noisy: repeats of one test often differ as much as different tests do.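 Cells: ReNCell VM human fetal ventral-midbrain neural progenitors, differentiated mitogen-free. Blinded raters compared doublecortin-stained (early neurons) or tyrosine hydroxylase-stained (dopaminergic neurons) images with untreated wells, where 0 means no change. After repeats and both raters were averaged, compounds scoring 2 or above became hits for retesting.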
# What was measured:
# ReNCell VM [1] = assay: neuronal differentiation score (DCX+ cell fraction vs untreated, manual image score) (score (-3 to 3)); higher = more neuronal differentiation; settings: 2 uM, 2 weeks
# ReNCell VM [2] = assay: dopaminergic neuron differentiation score (TH+ cell fraction vs untreated, manual image score) (score (0 to 3)); higher = more TH+ dopaminergic neuron differentiation; settings: 2 uM, 4 weeks, BDNF 10 ng/ml + GDNF 10 ng/ml
smiles,measurement,setting,value
O=C1c2ccccc2C(=O)C1c1ccc(Cl)cc1,neuronal differentiation score,ReNCell VM [1]; library: Spectrum,inactive: 0
same,dopaminergic neuron differentiation score,ReNCell VM [2]; library: Spectrum,inactive: 0
O=C(Nc1cc(C(F)(F)F)cc(C(F)(F)F)c1)c1cc(Cl)ccc1O,neuronal differentiation score,ReNCell VM [1]; library: Tocriscreen,inactive: 0
same,dopaminergic neuron differentiation score,ReNCell VM [2]; library: Tocriscreen,inactive: 0
COc1c(-c2coc3cc4c(cc3c2=O)CC(O)C(C)(C)O4)ccc2c1C=CC(C)(C)O2 (configuration not stated),neuronal differentiation score,ReNCell VM [1]; library: Spectrum,inactive: -1
same,dopaminergic neuron differentiation score,ReNCell VM [2]; library: Spectrum,active: 3
Nc1nc2ccc(OC(F)(F)F)cc2s1 [Riluzole],neuronal differentiation score,ReNCell VM [1]; library: LOPAC,inactive: 0
same,dopaminergic neuron differentiation score,ReNCell VM [2]; library: LOPAC,inactive: 0
CNCC[C@H](Oc1ccc(C(F)(F)F)cc1)c1ccccc1 [S-(+)-Fluoxetine hydrochloride],neuronal differentiation score,ReNCell VM [1]; library: LOPAC,inactive: 0
same,dopaminergic neuron differentiation score,ReNCell VM [2]; library: LOPAC,inactive: 0
CN(C)[C@@H]1C(O)=C(C(N)=O)C(=O)[C@@]2(O)C(O)=C3C(=O)c4c(O)cccc4[C@@](C)(O)[C@H]3C[C@@H]12,neuronal differentiation score,ReNCell VM [1]; library: Spectrum,inactive: 0
same,dopaminergic neuron differentiation score,ReNCell VM [2]; library: Spectrum,inactive: 0
CCCCCS(=O)(=O)CCCCCCCCCCn1c(-c2ccc(O)cc2)c(C)c2cc(O)ccc21,neuronal differentiation score,ReNCell VM [1]; library: Tocriscreen,inactive: 0
same,dopaminergic neuron differentiation score,ReNCell VM [2]; library: Tocriscreen,inactive: 0
CC1=CC2C(CC1=O)C(C)=CCC2C(C)C (configuration not stated),neuronal differentiation score,ReNCell VM [1]; library: Spectrum,inactive: 0
same,dopaminergic neuron differentiation score,ReNCell VM [2]; library: Spectrum,inactive: 0
O=C(CCNNC(=O)c1ccncc1)NCc1ccccc1,neuronal differentiation score,ReNCell VM [1]; library: Spectrum,inactive: 0
same,dopaminergic neuron differentiation score,ReNCell VM [2]; library: Spectrum,inactive: 0
CCCN(CCC)CCc1cccc2c1CC(=O)N2 [Ropinirole hydrochloride],neuronal differentiation score,ReNCell VM [1]; library: LOPAC,inactive: 0
same,dopaminergic neuron differentiation score,ReNCell VM [2]; library: LOPAC,inactive: 0
CC(C)(C)NC[C@H](O)COc1cccc2c1CCCC2=O [(-) -Levobunolol hydrochloride],neuronal differentiation score,ReNCell VM [1]; library: Prestwick,inactive: 0
same,dopaminergic neuron differentiation score,ReNCell VM [2]; library: Prestwick,inactive: 0
COc1cc2ncnc(Nc3ccc(Cl)cc3F)c2cc1OC,neuronal differentiation score,ReNCell VM [1]; library: Tocriscreen,inactive: 0
same,dopaminergic neuron differentiation score,ReNCell VM [2]; library: Tocriscreen,inactive: 0
Nc1ncnc2nc(-c3ccc(N4CCOCC4)nc3)cc(-c3cccc(Br)c3)c12 [ABT 702 dihydrochloride],neuronal differentiation score,ReNCell VM [1]; library: Tocriscreen,inactive: 0
same,dopaminergic neuron differentiation score,ReNCell VM [2]; library: Tocriscreen,inactive: 0
COc1ccc2c(c1)OCC(Cc1ccc(OC)c(O)c1)C2=O (configuration not stated),neuronal differentiation score,ReNCell VM [1]; library: Spectrum,inactive: 0
same,dopaminergic neuron differentiation score,ReNCell VM [2]; library: Spectrum,inactive: 0
O=C(O)CS,neuronal differentiation score,ReNCell VM [1]; library: Spectrum,inactive: 0
same,dopaminergic neuron differentiation score,ReNCell VM [2]; library: Spectrum,inactive: 0
NCCCNCCCCNCCCN [Spermine tetrahydrochloride],neuronal differentiation score,ReNCell VM [1]; library: LOPAC,active: 3
same,dopaminergic neuron differentiation score,ReNCell VM [2]; library: LOPAC,inactive: 0
C=C(CC)C(=O)c1ccc(OCC(=O)O)c(Cl)c1Cl,neuronal differentiation score,ReNCell VM [1]; library: Spectrum,inactive: 1
same,dopaminergic neuron differentiation score,ReNCell VM [2]; library: Spectrum,inactive: 0
O=C(O)CCc1nc2ccccc2[nH]1,neuronal differentiation score,ReNCell VM [1]; library: Spectrum,inactive: 0
same,dopaminergic neuron differentiation score,ReNCell VM [2]; library: Spectrum,inactive: 0
COc1ccc(-c2nc(-c3ccc(-c4cccc(Cl)c4)o3)[nH]c2-c2ccc(OC)cc2)cc1 [Neurodazine],neuronal differentiation score,ReNCell VM [1]; library: Tocriscreen,inactive: 0
same,dopaminergic neuron differentiation score,ReNCell VM [2]; library: Tocriscreen,inactive: 0
O=[N+]([O-])c1cccc2c[nH]nc12,neuronal differentiation score,ReNCell VM [1]; library: Tocriscreen,inactive: 0
same,dopaminergic neuron differentiation score,ReNCell VM [2]; library: Tocriscreen,active: 3
Nn1nnc2ccccc21 [1-Aminobenzotriazole],neuronal differentiation score,ReNCell VM [1]; library: LOPAC,inactive: 0
same,dopaminergic neuron differentiation score,ReNCell VM [2]; library: LOPAC,inactive: 0
NC(C(=O)O)c1ccc(C(=O)O)c(C(=O)O)c1 (configuration not stated),neuronal differentiation score,ReNCell VM [1]; library: Tocriscreen,inactive: 0
same,dopaminergic neuron differentiation score,ReNCell VM [2]; library: Tocriscreen,inactive: 0
Cc1c(C(=O)N(C)C2CCCCC2)sc2nc3ccc(N)cc3n12,neuronal differentiation score,ReNCell VM [1]; library: Tocriscreen,inactive: 0
same,dopaminergic neuron differentiation score,ReNCell VM [2]; library: Tocriscreen,inactive: 0
Nc1ccc(S(=O)(=O)c2ccc(N)cc2)cc1,neuronal differentiation score,ReNCell VM [1]; library: Spectrum,inactive: 0
same,dopaminergic neuron differentiation score,ReNCell VM [2]; library: Spectrum,inactive: 0
OC[C@H]1O[C@@H](n2cnc3c(NCc4ccco4)ncnc32)[C@H](O)[C@@H]1O,neuronal differentiation score,ReNCell VM [1]; library: Spectrum,inactive: 0
same,dopaminergic neuron differentiation score,ReNCell VM [2]; library: Spectrum,inactive: 0
CO[C@@]12[C@H](COC(N)=O)C3=C(C(=O)C(C)=C(N)C3=O)N1C[C@@H]1N[C@@H]12,neuronal differentiation score,ReNCell VM [1]; library: Spectrum,inactive: 0
same,dopaminergic neuron differentiation score,ReNCell VM [2]; library: Spectrum,inactive: 0
Oc1cccc(O)c1,neuronal differentiation score,ReNCell VM [1]; library: Spectrum,inactive: -1
same,dopaminergic neuron differentiation score,ReNCell VM [2]; library: Spectrum,inactive: 0
NC(N)=NCc1cccc(I)c1 [m-Iodobenzylguanidine hemisulfate],neuronal differentiation score,ReNCell VM [1]; library: LOPAC,inactive: 0
same,dopaminergic neuron differentiation score,ReNCell VM [2]; library: LOPAC,inactive: 0
CCOC(=O)[C@@H](C)Oc1cccc2c(=O)n(CC(=O)Nc3ccc4c(c3)OCCO4)ccc12,neuronal differentiation score,ReNCell VM [1]; library: Tocriscreen,inactive: 0
same,dopaminergic neuron differentiation score,ReNCell VM [2]; library: Tocriscreen,inactive: 0
CC1CCN(CCCC(=O)c2ccc(F)cc2)CC1 [Melperone hydrochloride],neuronal differentiation score,ReNCell VM [1]; library: Tocriscreen,inactive: 0
same,dopaminergic neuron differentiation score,ReNCell VM [2]; library: Tocriscreen,inactive: 0
CN1[C@@H]2CC[C@H]1C[C@@H](OC(=O)c1c[nH]c3ccccc13)C2 [Tropisetron HCl],neuronal differentiation score,ReNCell VM [1]; library: Prestwick,inactive: 0
same,dopaminergic neuron differentiation score,ReNCell VM [2]; library: Prestwick,inactive: 0
Cc1c(C)c2c(c(C)c1O)CCC(C)(COc1ccc(CC3SC(=O)NC3=O)cc1)O2 (configuration not stated) [Troglitazone],neuronal differentiation score,ReNCell VM [1]; library: Prestwick,inactive: 0
same,dopaminergic neuron differentiation score,ReNCell VM [2]; library: Prestwick,inactive: 0
Cc1cnc(C(=O)O)c[n+]1[O-] [Acipimox],neuronal differentiation score,ReNCell VM [1]; library: Prestwick,inactive: 0
same,dopaminergic neuron differentiation score,ReNCell VM [2]; library: Prestwick,inactive: 0
CC1(C)CCCC2(C)C1CCC(C)(O)C2CCC(C)(O)C1CO1 (configuration not stated),neuronal differentiation score,ReNCell VM [1]; library: Natural,inactive: 0
same,dopaminergic neuron differentiation score,ReNCell VM [2]; library: Natural,inactive: 0
COc1cc(C)c(CCC(C)=CC=CC(C)=O)c(C)c1C,neuronal differentiation score,ReNCell VM [1]; library: Natural,inactive: 0
same,dopaminergic neuron differentiation score,ReNCell VM [2]; library: Natural,inactive: 0
CC1(C)S[C@@H]2[C@H](NC(=O)[C@H](N)c3ccc(O)cc3)C(=O)N2[C@H]1C(=O)O [Amoxicillin],neuronal differentiation score,ReNCell VM [1]; library: Prestwick,inactive: 0
same,dopaminergic neuron differentiation score,ReNCell VM [2]; library: Prestwick,inactive: 0

# An excerpt of these results, with tabs.
smiles	measurement	setting	value
O=C1c2ccccc2C(=O)C1c1ccc(Cl)cc1	dopaminergic neuron differentiation score	ReNCell VM [2]; library: Spectrum	inactive: 0
CN(C)[C@@H]1C(O)=C(C(N)=O)C(=O)[C@@]2(O)C(O)=C3C(=O)c4c(O)cccc4[C@@](C)(O)[C@H]3C[C@@H]12	neuronal differentiation score	ReNCell VM [1]; library: Spectrum	inactive: 0
CCCN(CCC)CCc1cccc2c1CC(=O)N2 [Ropinirole hydrochloride]	neuronal differentiation score	ReNCell VM [1]; library: LOPAC	inactive: 0
CC(C)(C)NC[C@H](O)COc1cccc2c1CCCC2=O [(-) -Levobunolol hydrochloride]	dopaminergic neuron differentiation score	ReNCell VM [2]; library: Prestwick	inactive: 0
COc1ccc(-c2nc(-c3ccc(-c4cccc(Cl)c4)o3)[nH]c2-c2ccc(OC)cc2)cc1 [Neurodazine]	dopaminergic neuron differentiation score	ReNCell VM [2]; library: Tocriscreen	inactive: 0
Nc1ccc(S(=O)(=O)c2ccc(N)cc2)cc1	neuronal differentiation score	ReNCell VM [1]; library: Spectrum	inactive: 0
